Laboratory results from PubChem BioAssay AID1671190 (National Center for Advancing Translational Sciences (NCATS), 2021).
The whole screen tested about 580,000 compounds, of which about 6,100 (1.1%) were called active. Inconclusive means that the source gave no clear call. Such entries were picked first, then a sample of the others. Calls follow the shape of the dose curve; as a rule, active = well fitted inhibition curve with a large enough effect; inconclusive = small, poorly fitted or top-dose-only effect, or another doubt; inactive = no such curve, though single readings can be large or run the other way. Where the call is inconclusive, the potency comes from a doubtful curve fit.

By UniProt entry, the sequences of proteins in these tests, tags left out. Where a name states a change or a piece, a line headed by the entry shows the natural chain unless it says otherwise.
UniProt P18054: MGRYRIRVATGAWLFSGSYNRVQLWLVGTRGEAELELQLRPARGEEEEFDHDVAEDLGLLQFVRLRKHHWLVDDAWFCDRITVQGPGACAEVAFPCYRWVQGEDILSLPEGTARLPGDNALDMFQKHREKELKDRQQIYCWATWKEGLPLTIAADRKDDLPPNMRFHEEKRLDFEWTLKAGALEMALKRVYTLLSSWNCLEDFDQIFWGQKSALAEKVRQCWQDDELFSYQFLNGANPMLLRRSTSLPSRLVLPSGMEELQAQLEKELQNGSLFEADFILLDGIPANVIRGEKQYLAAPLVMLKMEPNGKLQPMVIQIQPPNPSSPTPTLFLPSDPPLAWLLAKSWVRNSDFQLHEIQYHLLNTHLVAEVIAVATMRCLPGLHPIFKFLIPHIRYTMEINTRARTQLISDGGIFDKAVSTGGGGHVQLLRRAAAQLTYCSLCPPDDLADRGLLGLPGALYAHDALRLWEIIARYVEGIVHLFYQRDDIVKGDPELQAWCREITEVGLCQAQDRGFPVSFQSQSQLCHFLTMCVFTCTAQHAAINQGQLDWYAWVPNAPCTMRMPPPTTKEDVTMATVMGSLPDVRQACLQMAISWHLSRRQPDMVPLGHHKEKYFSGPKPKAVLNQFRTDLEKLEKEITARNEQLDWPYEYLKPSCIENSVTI

molecular target: Polyunsaturated fatty acid lipoxygenase ALOX12 (Homo sapiens) (UniProt P18054); experiment: Primary qHTS assay for inhibitors of human arachidonate 12S-lipoxygenase (ALOX12): Round 2; conditions: purified 12hLO, xylenol orange hydroperoxide absorbance; series mostly up to 108 µM
Summary of the method: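 Hydroperoxide product was detected by ferrous iron/xylenol orange as the 573 to 405 nm absorbance ratio. Arachidonic acid at 40 uM (final) was turned over for 30 min at room temperature by 150 nM human 12hLO, pH 7.0 Hepes buffer, after 15 min compound preincubation.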
Potency is read from the fitted curve at half-maximal effect.

| Compound | Potency |
| --- | --- |
| C[C@H](NC(=O)c1nc[nH]c1C(=O)NCC(=O)OCc1ccccc1)c1ccccc1 | inactive |
| COc1ccccc1NS(=O)(=O)c1cc(NC(=O)c2cc[n+]([O-])cc2)ccc1N1CCCC1 | inconclusive: 39.8 µM [inhibitor, partial curve, poor fit] |
| C1CCC(N=C(NC23CC4CC(CC(C4)C2)C3)N2CCOCC2)CC1 | inactive |
| O=C(NC(Cc1ccccc1)C(=O)O)/C(=C\c1cccc([N+](=O)[O-])c1)NC(=O)c1ccco1 (centres undefined) | inconclusive: 5.62 µM [inhibitor, full curve, poor fit] |
| COc1cccc(NC(=O)c2nnn(Cc3ccc(OC)c(Br)c3)c2N)c1 | inactive |
| O=C(NCC(=O)N1CCN(S(=O)(=O)c2ccc3c(c2)OCCO3)CC1)c1ccccc1Cl | inconclusive: 3.55 µM [inhibitor, full curve, poor fit] |
| O=C(CN1CCCCCC1)Nc1cccc(NC(=O)CN2CCCCCC2)c1 | inconclusive: 1 µM [inhibitor, full curve, poor fit] |
| CC(=C/C(=O)O)/C=C/c1ccc([N+](=O)[O-])cc1 | inactive |
| CN(C)c1ccc(NC(=O)c2cccc3ccccc23)cc1 | inconclusive: 12.6 µM [inhibitor, partial curve, poor fit] |
| COc1cccc(-c2nc(N(C)C3CCCCC3)c3ccccc3n2)c1O | inconclusive: 100 µM [inhibitor, single point] |
| NNc1ccc(Br)c2ccccc12 | inconclusive: 7.94 µM [inhibitor, full curve, poor fit] |
| CC(C)COc1ccc(C(=O)OCCN2CCOCC2)c(O)c1 | inconclusive: 7.94 µM [inhibitor, partial curve, poor fit] |
| O=C(O)C[C@@H]1CCN(C(=O)Nc2ccccc2)C[C@@H]1CC1=NCCc2cc(F)ccc21 | inconclusive: 31.6 µM [inhibitor, full curve, poor fit] |
| CCCc1cc(=O)n2nc(N3CCC(C(=O)NCc4cccc(Br)c4)CC3)sc2n1 | inactive |
| COc1ccc(S(=O)(=O)NCCCCOc2ccc(Cl)cc2)cc1 | inconclusive: 39.8 µM [inhibitor, partial curve, poor fit] |
| CS(=O)(=O)NCc1nnc(SCc2ccccc2C(F)(F)F)o1 | inconclusive: 31.6 µM [inhibitor, single point] |
| Cc1ccccc1-c1cc(C(=O)NCCc2ccccc2)c2ccccc2n1 | inactive |
| Nc1nc2ccc([N+](=O)[O-])cc2[n+]([O-])n1 | inconclusive: 35.5 µM [inhibitor, partial curve, poor fit] |
| O=C(NC(=S)Nc1c(Cl)cc(Cl)cc1Cl)c1ccccc1 | active: 35.5 µM |
| COC(=O)C1=CN(C)C=C(C(=O)OC)C1c1cccs1 | inactive |
| CN(C)c1nc2c(c(=O)n(C)c(=O)n2C)n1CCc1ccccc1 | inconclusive: 112 µM [inhibitor, partial curve, poor fit] |
| CCOC(=O)Nc1cc(=O)c2ccccc2o1 | inactive |

| Compound | Potency |
| --- | --- |
| CN(C)C(=O)CN1CCN(CC2CCCCC2)CC1 | inactive |
| NC1=NC[C@H](CC2CCCCC2)N1CCc1cc(C(F)(F)F)cc(C(F)(F)F)c1 | inconclusive: 70.8 µM [inhibitor, partial curve, poor fit] |
| CCC(C)CNc1ncnc2c1CN(C1CCCNCC1)C(=O)CN2C (centres undefined) | inconclusive: 4.47 µM [inhibitor, full curve, poor fit] |
| OC[C@@H]1CN(Cc2ccccn2)C[C@H]1c1nc(-c2cccnc2)no1 | inactive |
| Cc1nc2c(-c3ccc(F)cc3)c(C)nn2c(C)c1CCC(=O)N1CCN(c2ccc(F)cc2)CC1 | inactive |
| COc1ccccc1C(=O)N1CCN(C(=O)c2nnn3c2COC(c2ccc(Cl)cc2)C3)CC1 (centres undefined) | inactive |
| Cc1ccc(C(=O)Nc2ccc3nc(SCC(=O)N4CCC(C)CC4)sc3c2)cc1 | inconclusive: 31.6 µM [inhibitor, single point] |
| CCOC(=O)/C(=C\c1ccc(Cl)cc1)c1nc2sc(C)c(C)c2c(=O)[nH]1 | inconclusive: 44.7 µM [inhibitor, partial curve, poor fit] |
| O=C(NCc1cccc(Cl)c1)c1cccc(OC2CCN(C(=O)C3CC3)CC2)c1 | inactive |
| CN=c1scc(-c2ccccc2)n1/N=C/c1ccsc1 | inactive |
| CSc1ccccc1NC(=O)CN(C)CC(=O)c1[nH]c(C)c(C(C)=O)c1C | inconclusive: 70.8 µM [inhibitor, partial curve, poor fit] |
| N#Cc1cc2c(=O)n3ccccc3nc2n(CCCN2CCOCC2)c1=O | inconclusive: 44.7 µM [inhibitor, partial curve, poor fit] |
| COc1cc2oc(=O)cc(CN3CCOCC3)c2cc1Cl | inconclusive: 89.1 µM [inhibitor, single point] |
| c1ccc2c(c1)OCCOCCOCCOCCO2 | inactive |
| O=c1cc(-c2ccccc2)ss1 | inconclusive: 50.1 µM [inhibitor, partial curve, poor fit] |
| O=C(NC(NC(=S)Nc1ccc(Cl)cc1)C(Cl)(Cl)Cl)c1ccco1 (centres undefined) | inconclusive: 44.7 µM [inhibitor, partial curve, poor fit] |
| COc1ccc(OC)c(-c2nc3c(c(=O)[nH]2)Cc2ccccc2O3)c1 | inconclusive: 63.1 µM [inhibitor, partial curve, poor fit] |
| O=C1NC(c2ccc(Br)cc2)c2c(-c3ccccc3)n[nH]c21 (centres undefined) | inactive |
| Cc1occc1-c1nc(-c2cccc(Br)c2)no1 | inconclusive: 35.5 µM [inhibitor, partial curve, poor fit] |
| Cn1cc(/C=C2\SC(=S)N(NC(=O)c3ccccc3)C2=O)c2ccccc21 | inactive |
| CC(C)CNc1nc(-c2ccc(O)c(C(N)=O)c2)cs1 | inconclusive: 6.31 µM [inhibitor, full curve, poor fit] |
| O=C(Nc1ccc(N2CCCC2=O)cc1)c1ccc(Cl)cc1N1CCCC1=O | inconclusive: 56.2 µM [inhibitor, partial curve, poor fit] |
